# Test results reported in PubChem BioAssay AID493014 (National Center for Advancing Translational Sciences (NCATS), 2011).
# Values joined by “and” are separate entries in the source; they are usually repeats but may differ in a detail not shown here. Identical values can stand only once. The list shows a part of the results. These are further read-outs of the screen, such as a control signal, another cell line or another target. No call is given for them. Most of these compounds were active or inconclusive in the main read-out, so they are no random draw. Words in brackets tell the shape of the fitted curve; partial curves, single points and poor fits give uncertain potencies.
# Assay: qHTS Assay to Find Inhibitors of Chronic Active B-Cell Receptor Signaling
# Conditions: ABC-DLBCL IkBa-CBG/CBR reporter, luminescence ratio (green luciferase fused to IkBa over red control in TMD8 lymphoma cells), 4 h
# How it was run: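 Doxycycline induced both beetle luciferases in TMD8 lymphoma cells; IKK-driven degradation limits the IkappaBalpha-fused green signal, while red luminescence normalises for cell number and nonspecific effects. Compounds tested up to 46 uM, 4 hrs.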
# [1] = measured here: CBR red luminescence, cell number
# [2] = measured here: IkBa-CBG green luminescence
Structure (SMILES),AC50 [1],AC50 [2]
Oc1c(C=Nc2cccnc2)sc2ccccc12,"9.2 µM [falling, partial curve]",
O=c1[nH]c2ccccc2cc1CN(Cc1ccco1)S(=O)(=O)c1ccccc1,"2.82 µM [falling, full curve, poor fit]",
COc1ccc(C(=O)Nc2ccc([N+](=O)[O-])cn2)cc1OC,"23.1 µM [falling, single point]",
COc1ccc(NC(=O)c2cc3c(-c4ccc(OC)c(OC)c4)nn(C)c3s2)cc1OC,"0.259 µM [rising, full curve, poor fit]",
Cc1noc(NC(=O)c2cccc(Cl)c2Cl)c1C#N,"11.2 µM [rising, partial curve, poor fit]",
COc1cc(OC)cc(C(=O)NC(C(=O)NCCN(C)C)C23CC4CC(CC(C4)C2)C3)c1 (stereo unspecified),"1.78 µM [falling, partial curve, poor fit]",
NNC(=O)CSc1nnc(-c2ccccc2)n1-c1ccccc1,"11.2 µM [falling, partial curve, poor fit]",
Cc1ccccc1OCCNC(=O)c1ccc2ccccc2n1,"1.84 µM [rising, partial curve]",
Cn1c(=O)c2c(SCC(=O)NCC3CCCO3)nc(-c3cccs3)nc2n(C)c1=O (stereo unspecified),"0.00461 µM [falling, full curve, poor fit]",
CCOC(=O)c1ccc(N2CCN(c3cccc(OC)c3)CC2)c(NC(=O)Nc2ccc(OCC)cc2)c1,"0.708 µM [rising, full curve, poor fit]",
CCCOc1ccccc1C1CC(=O)Nc2cc3c(cc21)OCO3 (stereo unspecified),,"16.4 µM [falling, partial curve]"
COc1ccc(OCC(O)CNC(=O)c2cccs2)cc1 (stereo unspecified),"12.6 µM [rising, partial curve, poor fit]",
CCn1c(SCC(=O)Nc2ccc(OCc3ccccc3)cc2)nnc1-c1ccco1,"35.5 µM [falling, single point]",
C/C(=N\N=C1/NC(=O)C(C)S1)c1ccc([N+](=O)[O-])cc1 (stereo unspecified),"14.6 µM [rising, partial curve]",
CCOc1cccc(NC(=O)/C(C#N)=C\c2cn(CC(=O)O)c3ccccc23)c1,"2.82 µM [falling, partial curve, poor fit]",
COc1cc(C(C)=O)ccc1OCCN1CCC(Cc2ccccc2)CC1,"10 µM [falling, partial curve, poor fit]",
COc1ccc(/C=N/NC(=O)c2cccnc2)cc1CSc1ccccn1,"3.16 µM [falling, full curve, poor fit]",
Cc1noc(NS(=O)(=O)c2ccc(NC(=O)/C=C/c3ccc(Br)cc3)cc2)c1C,"10 µM [falling, partial curve, poor fit]",
S=C(NC1CCCCC1)N1CCOCCOCCN(C(=S)NC2CCCCC2)CCOCC1,"35.5 µM [falling, single point]",

Structure (SMILES),AC50 [1],AC50 [2]
O=C(O)c1cccc(-c2ccc(/C=N/NC(=O)C3COc4ccccc4O3)o2)c1 (stereo unspecified),"35.5 µM [falling, single point]","6.31 µM [rising, partial curve, poor fit]"
O=C(c1ccccc1)c1cccc(NC(=O)c2ccc(Br)o2)c1,"29.1 µM [falling, single point]",
O=C(NC(=S)Nc1ccccn1)c1cncc(Br)c1,"0.517 µM [rising, full curve, poor fit]","29.1 µM [falling, single point]"
COc1ccc(-c2cc(-c3n[nH]c(=S)n3-c3ccccc3OC)[nH]n2)cc1,"3.66 µM [falling, partial curve, poor fit]",
CCc1ccc(CN(C)C(=O)C2CCC(=O)N(Cc3cccc(OC)c3)C2)nc1 (stereo unspecified),"35.5 µM [falling, single point]",
O=C(COc1ccccc1-c1ccccc1)NCc1ccco1,"7.94 µM [falling, partial curve, poor fit]",
COc1cccc(NC(=O)C(C)Oc2ccccc2)c1 (stereo unspecified),"22.4 µM [rising, single point]",
COc1cc(NC(=O)c2onc(C)c2Cl)cc(OC)c1OC,"5.62 µM [falling, partial curve, poor fit]",
CC(C)Cn1c(N)c(S(=O)(=O)c2cccs2)c2nc3ccccc3nc21,"9.2 µM [falling, partial curve, poor fit]",
CN(c1ccc(Cl)cc1)S(=O)(=O)c1nnc(NC(=O)C(C)(C)C)s1,"35.5 µM [falling, partial curve, poor fit]",
CC(C)c1ccccc1NC(=O)CN1C(=O)c2ccccc2C1=O,"0.794 µM [rising, full curve, poor fit]",
Cc1ccc(C2(C)NC(=O)N(CC(=O)Nc3nc(-c4ccccn4)cs3)C2=O)cc1 (stereo unspecified),"20.6 µM [falling, partial curve, poor fit]",
O=C(COc1ccc2ccccc2c1)Nc1cccnc1Cl,"6.31 µM [rising, partial curve, poor fit]",
COc1ccc(-c2nc3ccccc3c(=O)n2CCN2CCOCC2)cc1,"0.206 µM [rising, full curve, poor fit]",
CCOC(=O)c1[nH]c2ccccc2c1NC(=O)c1ccc2c(c1)OCO2,"11.2 µM [rising, partial curve, poor fit]",
O=[N+]([O-])c1cc(/C=N/O)ccc1Oc1cccc(Cl)c1,"0.282 µM [rising, full curve, poor fit]",
Cc1ccc(S(=O)(=O)Cc2ccc(C(=O)N3CCN(c4cccc(C)c4C)CC3)o2)cc1,"35.5 µM [falling, single point]","10 µM [falling, partial curve] and 11.2 µM [falling, partial curve]"
CCOC(=O)c1c(NC(=O)CSc2c[nH]c3ccccc23)sc2c1CCC2,,"29.1 µM [rising, partial curve, poor fit]"
CC(=O)c1cccc(NC(=O)/C=C/c2ccc([N+](=O)[O-])s2)c1,"0.398 µM [falling, full curve, poor fit]",
